Test results taken from patent US20250259704A1, “SYSTEMS AND METHODS FOR CELL-FREE ITERATIVE SITE SATURATION MUTAGENESIS AND ITS APPLICATION FOR THE DIRECTED EVOLUTION OF ENZYMES CATALYZING UNNATURAL REACTIONS” (Northwestern University, priority 2022, published 2025).
At least one read-out could not be matched to a standard name with certainty.

System: amide synthetase McbA
Experiment: Apparent steady-state kinetics, amide bond formation coupled to NADH oxidation
Assay type: biochemical, Marinactinospora thermotolerans
Conditions: for the amine 4-(2-aminoethyl)morpholine, 50 mM 4-chlorobenzoic acid, 10% v/v DMSO, 30° C.
Description: McbA apparent kinetics for the amine pair of moclobemide (4-(2-aminoethyl)morpholine) were determined by enzymatically coupling amide bond formation (and the concomitant release of AMP from the acyl-AMP intermediate by its substitution with the amine) with the oxidation of NADH, as shown in FIGS. 7A-7B. Reactions contained 100 mM MOPS-KOH pH 7.8, 5 mM MgCl2, 2.5 mM phosphoenolpyruvate, 5 mM ATP, 0.3 mM NADH, 50 mM 4-chlorobenzoic acid, 15 U/mL pyruvate kinase and lactate dehydrogenase enzyme mix (Sigma-Aldrich P0294), 25 U/mL myokinase (Sigma-Aldrich 475941), and various concentrations (50-200 μg/mL) of the studied McbA variant. As the acid here (4-chlorobenzoic acid) has poor solubility in water and was dissolved in DMSO, the final reactions contained 10% v/v DMSO (equivalent to our amidation screens). 180-μL reactions were first equilibrated at 30° C. for 3 minutes and then initiated by adding 20-μL of amine. The initial velocity was determined for different concentrations of amine (0.1 mM-50 mM) by measuring NADH absorbance at 340 nm on a Cary 60 UV-Vis (Agilent). Data were collected and analyzed using the Cary WinUV Kinetics Application software (Agilent). Michaelis-Menten graphs were plotted in GraphPad Prism and fit using the default Michaelis-Menten non-linear regression analysis tool.

Molecule	kcat/KM
wt-McbA: wild-type amide bond synthetase McbA from Marinactinospora thermotolerans with CSL-tag, SEQ ID NO: 2 (protein, CSL-tag) MEKKIWSHPQFEKGGSGENLYFQGGYARRVMDGIGEVAVTGAGGSVTGARLRHQVRLLAHALTEAGIPPGRGVACLHANTWRAIALRLAVQAIGCHYVGLRPTAAVTEQARAIAAADSAALVFEPSVEARAADLLERVSVPVVLSLGPTSRGRDILAASVPEGTPLRYREHPEGIAVVAFTSGTTGTPKGVAHSSTAMSACVDAAVSMYGRGPWRFLIPIPLSDLGGELAQCTLATGGTVVLLEEFQPDAVLEAIERERATHVFLAPNWLYQLAEHPALPRSDLSSLRRVVYGGAPAVPSRVAAARERMGAVLMQNYGTQEAAFIAALTPDDHARRELLTAVGRPLPHVEVEIRDDSGGTLPRGAVGEVWVRSPMTMSGYWRDPERTAQVLSGGWLRTGDVGTFDEDGHLHLTDRLQDIIIVEAYNVYSRRVEHVLTEHPDVRAAAVVGVPDPDSGEAVCAAVVVADGADPDPEHLRALVRDHLGDLHVPRRVEFVRSIPVTPAGKPDKVKVRTWFTD	0.303 M⁻¹ s⁻¹
qm-McbAmoclobemide: quadruple mutant of McbA from ISM campaign for moclobemide, SEQ ID NO: 145 (protein) MEKKIWSHPQFEKGGSGENLYFQGGYARRVMDGIGEVAVTGAGGSVTGARLRHQVRLLAHALTEAGIPPGRGVACLHANTWRAIALRLAVQAIGCHYVGLRPTAAVTEQARAIAAADSAALVFEPSVEARAADLLERVSVPVVLSLGPTSRGRDILAASVPEGTPLRYREHPEGIASVAFTSGTTGTPKGVAHSSTAMSACVDAAVSMYGRGPWRFLIPSPLSDLGGELAQCTLATGGTVVLLEEFQPDAVLEAIERERATHVFLAPNWLYQLAEHPALPRSDLSSLRRVVYGGAPAVPSRVAAARERMGAVLMQNYGTQEAFFIAALTPDDHARRELLTAVGRPLPHVEVEIRDDSGGTLPRGAVGEVWVRSPMTMSGYWRDPERTAQVLSGGWLRTGDVGTFDEDGHLHLTDRLQDIIIVEAYNVYSLRVEHVLTEHPDVRAAAVVGVPDPDSGEAVCAAVVVADGADPDPEHLRALVRDHLGDLHVPRRVEFVRSIPVTPAGKPDKVKVRTWFTD	12.8 M⁻¹ s⁻¹
